The assay concerns the target hLH/CGR C-terminally fused to the BRET donor Rluc8 (human) (UniProt P22888). The assay is described as follows: FRET or BRET; living HEK293 cells co-expressing hLH/CGR-Rluc8 (donor) and yPET-β-arrestin 2 (acceptor); end point after 30 minutes at 37 °C with increasing concentrations of rhCG or rhLH in PBS 1X, 1 mM HEPES; Coelenterazine h. A general note: BRET reads energy transfer from a luciferase to a nearby fluorophore.

Chains of the proteins cited; added tags and fusions are not shown. Residues count along the entry.
UniProt P22888, residues 27-699: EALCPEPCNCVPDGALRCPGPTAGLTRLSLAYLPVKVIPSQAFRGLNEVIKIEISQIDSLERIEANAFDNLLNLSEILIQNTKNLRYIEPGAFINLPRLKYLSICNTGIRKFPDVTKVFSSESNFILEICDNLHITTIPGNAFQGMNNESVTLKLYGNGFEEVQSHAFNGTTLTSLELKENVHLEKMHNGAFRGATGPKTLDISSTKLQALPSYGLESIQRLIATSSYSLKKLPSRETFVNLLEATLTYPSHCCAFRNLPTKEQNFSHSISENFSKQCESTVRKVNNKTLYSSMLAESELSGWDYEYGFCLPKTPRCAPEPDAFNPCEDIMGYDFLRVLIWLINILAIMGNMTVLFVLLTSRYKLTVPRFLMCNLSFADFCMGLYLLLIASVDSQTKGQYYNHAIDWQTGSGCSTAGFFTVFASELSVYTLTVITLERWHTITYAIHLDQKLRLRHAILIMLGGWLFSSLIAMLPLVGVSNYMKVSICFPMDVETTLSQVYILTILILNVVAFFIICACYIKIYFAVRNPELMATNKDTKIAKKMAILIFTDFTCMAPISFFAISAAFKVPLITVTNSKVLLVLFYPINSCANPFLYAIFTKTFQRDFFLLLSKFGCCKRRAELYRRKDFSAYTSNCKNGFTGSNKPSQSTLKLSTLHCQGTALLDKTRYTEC
UniProt P32121: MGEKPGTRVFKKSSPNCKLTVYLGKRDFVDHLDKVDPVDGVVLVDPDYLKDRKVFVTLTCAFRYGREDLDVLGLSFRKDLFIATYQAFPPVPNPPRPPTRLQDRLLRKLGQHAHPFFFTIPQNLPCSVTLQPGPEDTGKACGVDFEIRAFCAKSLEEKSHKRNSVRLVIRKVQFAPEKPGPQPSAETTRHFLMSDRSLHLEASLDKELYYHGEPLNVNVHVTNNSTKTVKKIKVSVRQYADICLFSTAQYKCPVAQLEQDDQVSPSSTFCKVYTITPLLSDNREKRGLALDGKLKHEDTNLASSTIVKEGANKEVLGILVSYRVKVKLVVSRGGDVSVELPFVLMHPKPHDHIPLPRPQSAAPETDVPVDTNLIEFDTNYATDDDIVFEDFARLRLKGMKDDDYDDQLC

No constants are given. Whether binding was seen depends on the method and setting. Binding seen in cells or lysates may run through a third protein. Some results given as binding are weak or reduced against the parent protein; the word gives no strength.

For “β-arrestin 2 N-terminally fused to the BRET acceptor yPET (from UniProt P32121 1-409)”, the binding result is “binds”.

Values taken from article PMC5430435.
